Measured values reported in paper PMC12463629.
These are yes or no findings as the source states them, for the method shown. Binding seen in cells or lysates may run through a third protein. Some binding calls cover weakened binding; strength is not graded here.

Amino acid sequences for entries named in this document (tags omitted).
UniProt Q03267: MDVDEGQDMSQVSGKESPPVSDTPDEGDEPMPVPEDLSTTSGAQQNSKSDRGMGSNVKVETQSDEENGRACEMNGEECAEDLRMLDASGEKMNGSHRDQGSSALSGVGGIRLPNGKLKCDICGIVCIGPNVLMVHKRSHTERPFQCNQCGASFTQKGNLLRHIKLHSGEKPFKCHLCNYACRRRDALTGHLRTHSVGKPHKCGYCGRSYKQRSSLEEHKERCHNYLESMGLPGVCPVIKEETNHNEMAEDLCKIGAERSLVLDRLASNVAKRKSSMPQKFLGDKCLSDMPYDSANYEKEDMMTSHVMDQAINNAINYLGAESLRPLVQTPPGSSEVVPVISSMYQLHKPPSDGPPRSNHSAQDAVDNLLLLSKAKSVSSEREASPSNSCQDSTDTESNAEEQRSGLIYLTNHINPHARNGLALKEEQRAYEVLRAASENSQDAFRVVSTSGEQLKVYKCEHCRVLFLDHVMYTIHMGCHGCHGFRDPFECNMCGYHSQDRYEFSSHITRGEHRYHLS

Molecular target: T1, HDAC3 (UniProt O88895)
T1 sequence: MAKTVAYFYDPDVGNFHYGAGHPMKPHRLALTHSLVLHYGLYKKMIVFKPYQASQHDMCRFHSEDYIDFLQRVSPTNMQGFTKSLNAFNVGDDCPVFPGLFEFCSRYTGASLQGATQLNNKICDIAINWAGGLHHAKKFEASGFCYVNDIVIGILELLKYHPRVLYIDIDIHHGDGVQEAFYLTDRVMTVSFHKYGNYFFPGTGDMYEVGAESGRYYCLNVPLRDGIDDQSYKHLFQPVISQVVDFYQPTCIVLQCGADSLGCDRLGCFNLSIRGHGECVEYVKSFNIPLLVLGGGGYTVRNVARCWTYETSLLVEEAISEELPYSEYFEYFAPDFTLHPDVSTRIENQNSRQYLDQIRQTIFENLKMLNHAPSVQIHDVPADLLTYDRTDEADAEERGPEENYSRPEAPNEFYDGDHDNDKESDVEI
Assay: co-IP; cell lysate under LPS stimulation; 300 µg protein, 1 µg specific antibody overnight at 4°C, Protein A/G beads 2 h at 4°C, five washes with IP lysis buffer, Western blot

binding: binds
Substance: Ikaros family zinc finger 1 (IKZF1) (from UniProt Q03267 1-517)
